Results are given in words; binding and its absence hold for the method and conditions named. In cells and extracts the contact can be indirect. Some binding calls cover weakened binding; strength is not graded here.
Experiments:
[1] = molecular target: T1, cdk4 (human, UniProt P11802 1-303); assay: deletion series, biotinylated peptide pull-down of 35S-labelled kinase
[2] = molecular target: T2, cdk6 (Homo sapiens, UniProt Q00534); assay: as above
[3] = molecular target: T1, cdk4; assay: biotinylated peptide pull-down of 35S-labelled kinase
[4] = molecular target: T2, cdk6; assay: as above
[5] = molecular target: T1, cdk4; assay: alanine substitution series, pull-down
[6] = molecular target: T2, cdk6; assay: alanine substitution series, pull-down
[7] = molecular target: T1, cdk4; assay: alanine substitution series, pull-down of in vitro translated kinase
[8] = molecular target: T2, cdk6; assay: as above
[9] = molecular target: T1, cdk4; assay: alanine substitution series, pull-down of 35S-labelled kinase
[10] = molecular target: T2, cdk6; assay: as above

Sequences of proteins named here, by UniProt entry; tags and fusion partners are left off.
UniProt P11802: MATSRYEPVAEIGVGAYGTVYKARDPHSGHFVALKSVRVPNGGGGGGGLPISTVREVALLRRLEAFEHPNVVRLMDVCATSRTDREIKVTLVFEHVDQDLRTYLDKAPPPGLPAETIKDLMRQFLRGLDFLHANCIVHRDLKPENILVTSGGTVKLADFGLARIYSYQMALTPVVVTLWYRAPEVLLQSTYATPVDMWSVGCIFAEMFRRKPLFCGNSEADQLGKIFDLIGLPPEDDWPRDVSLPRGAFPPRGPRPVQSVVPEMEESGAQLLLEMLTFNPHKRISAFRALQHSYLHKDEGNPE
UniProt Q00534: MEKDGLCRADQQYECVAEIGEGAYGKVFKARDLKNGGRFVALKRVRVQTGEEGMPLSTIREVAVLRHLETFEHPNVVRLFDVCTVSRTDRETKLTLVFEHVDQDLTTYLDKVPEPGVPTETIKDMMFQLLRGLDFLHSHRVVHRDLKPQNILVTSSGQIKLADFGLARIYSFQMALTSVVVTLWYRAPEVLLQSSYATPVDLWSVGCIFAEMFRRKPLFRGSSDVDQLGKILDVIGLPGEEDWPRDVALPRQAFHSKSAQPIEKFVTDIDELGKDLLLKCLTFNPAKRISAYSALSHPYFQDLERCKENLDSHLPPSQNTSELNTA

Row | Binder | binding [1] | binding [2] | binding [3] | binding [4] | also measured
1 | SGSGDAARAGFLDTLQTLLEFQAD (biotin coupled to the N-terminus of the Ser-Gly-Ser-Gly linker) [p18 peptide corresponding to the 84-103 region of p16] |  |  | binds | binds | 
2 | SGSGDAAREGFLATLVVLHRAGAR (biotin coupled to the N-terminus of the SGSG linker) [peptide 6 with aspartic acid 92 substituted by alanine] |  |  |  |  | binding [5]: binds; binding [6]: binds; binding [7]: binds; binding [8]: binds; binding [9]: binds; binding [10]: binds
3 | SGSGDAAREGFLDTLVVLHGSGAR (biotin coupled to the N-terminus of the Ser-Gly-Ser-Gly linker) [mouse p16 peptide corresponding to the 84-103 region of p16] |  |  | binds | binds | 

More lines, main results first:

Row | binding [1] | binding [2] | binding [3] | binding [4] | Binder | also measured
4 | binds | binds |  |  | SGSGFLDTLVVLHR (biotin coupled to the N-terminus of the Ser-Gly-Ser-Gly linker) [peptide 10 of FIGS. 5A-C (10 aa p16 fragment, minimal binding peptide)] | 
5 | binds | binds |  |  | SGSGEGFLDTLVVLHRAGAR (biotin coupled to the N-terminus of the Ser-Gly-Ser-Gly linker) [peptide 7 of FIGS. 5A-C (16 aa p16 fragment)] | 

— US6569833B1, “Cyclin dependent kinase binding peptides” (Cyclacel Limited, priority 1995, dated 2003)
